Data as given in PubChem BioAssay AID1259308 (NCATS, 2017).

Screen: 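Knock-downs that increase output of a recombinant reporter protein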 (primary screen)
System: human HEK293 embryonic kidney cells stably expressing firefly luciferase (HEK-CMV-Luc2-Hygro)
Reagents: single siRNA against human genes, 0.8 pmol siRNA per well
Time to read-out: 72 h
Detection: 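Luciferase light (ONE-Glo) measured on one replicate plate set and viability (CellTiter-Glo) on the other, scaled to a negative control siRNA, with robust z-scores and luciferase per cell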
Scale: total luciferase, z-score and total luciferase, % of control: higher = more reporter protein produced; luciferase per cell, z-score: higher = more reporter output per viable cell; viable cells, % of control: higher = more viable cells
Call rule: 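An siRNA counts as active if its total luciferase robust z-score exceeds 3; genes with two or more such siRNAs out of three were retested with fresh siRNAs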
Calls: active = raised luciferase; inactive = no rise
This is a random part of about 59,000 deposited reagents. About 1,510 of them (2.6%) were called active. 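Calls use total luciferase alone and ignore viability, so some active siRNAs may act by altering cell number.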 Entries without a mark were called inactive. No sequences are given here.

Gene | PubChem SID | total luciferase, z-score | total luciferase, % of control | luciferase per cell, z-score | viable cells, % of control
DNAJC12 (DnaJ heat shock protein family (Hsp40) member C12) | SID160745056 | -0.0901 | 80.1 | 0.00353 | 89.4
DNAJC12 (DnaJ heat shock protein family (Hsp40) member C12) | SID160745057 | -0.469 | 72.6 | -0.409 | 90.3
DNAJC12 (DnaJ heat shock protein family (Hsp40) member C12) | SID160745058 | 3.51 (active) | 152 | 3.31 | 70.8
SGO2 (shugoshin 2) | SID160759078 | 0.522 | 92.3 | 0.535 | 89.6
SGO2 (shugoshin 2) | SID160759079 | 0.145 | 84.8 | 0.237 | 89
SGO2 (shugoshin 2) | SID160759080 | 0.385 | 89.5 | -0.0601 | 102
C1QTNF8 (C1q and TNF related 8) | SID160725267 | 0.855 | 98.9 | 0.804 | 89.4
C1QTNF8 (C1q and TNF related 8) | SID160733256 | -1.08 | 60.4 | -0.276 | 72.6
C1QTNF8 (C1q and TNF related 8) | SID160766555 | -0.836 | 65.2 | -1.09 | 97.1
SOX8 (SRY-box transcription factor 8) | SID160739508 | -0.484 | 72.3 | -0.247 | 86.2
SOX8 (SRY-box transcription factor 8) | SID160739509 | -0.931 | 63.4 | -0.15 | 73.7
SOX8 (SRY-box transcription factor 8) | SID160739510 | 1.41 | 110 | 1.29 | 87.5
FKBP3 (FKBP prolyl isomerase 3) | SID160765832 | -1.26 | 56.9 | -1.07 | 84.2
FKBP3 (FKBP prolyl isomerase 3) | SID160765842 | -0.123 | 79.4 | 0.198 | 84.3
FKBP3 (FKBP prolyl isomerase 3) | SID160765851 | 0.154 | 85 | -0.000118 | 94.9
NRIP3 (nuclear receptor interacting protein 3) | SID160731563 | -0.173 | 78.4 | -0.514 | 100
NRIP3 (nuclear receptor interacting protein 3) | SID160745141 | 0.103 | 83.9 | -0.328 | 102
NRIP3 (nuclear receptor interacting protein 3) | SID160745142 | -2.18 | 38.5 | -2.94 | 93.4
RILPL1 (Rab interacting lysosomal protein like 1) | SID160765144 | 0.0875 | 83.6 | 0.187 | 89
RILPL1 (Rab interacting lysosomal protein like 1) | SID160765145 | -0.196 | 78 | -0.325 | 95
RILPL1 (Rab interacting lysosomal protein like 1) | SID160765146 | 1.54 | 113 | 1.02 | 96.1

A few values from above.
C1QTNF8 (C1q and TNF related 8) [SID160725267], total luciferase, z-score: 0.855
Entry for RILPL1 (Rab interacting lysosomal protein like 1) [SID160765144] under “luciferase per cell, z-score”: 0.187
DNAJC12 (DnaJ heat shock protein family (Hsp40) member C12) [SID160745057], luciferase per cell, z-score: -0.409

More records:
Gene | PubChem SID | total luciferase, z-score | total luciferase, % of control | luciferase per cell, z-score | viable cells, % of control
OR4D11 (olfactory receptor family 4 subfamily D member 11) | SID160761451 | 1.21 | 106 | 0.314 | 109
OR4D11 (olfactory receptor family 4 subfamily D member 11) | SID160761452 | 0.0381 | 82.6 | -0.472 | 105
OR4D11 (olfactory receptor family 4 subfamily D member 11) | SID160761453 | 1.18 | 105 | 2.4 | 62.5
KRTAP20-1 (keratin associated protein 20-1) | SID160725060 | -1.21 | 57.9 | -0.579 | 75.3
KRTAP20-1 (keratin associated protein 20-1) | SID160725061 | 0.627 | 94.4 | 0.662 | 88.6
KRTAP20-1 (keratin associated protein 20-1) | SID160727984 | -0.263 | 76.7 | -0.133 | 88.7
DHRS7B (dehydrogenase/reductase 7B) | SID160737380 | -0.418 | 73.6 | -0.491 | 93.6
DHRS7B (dehydrogenase/reductase 7B) | SID160737381 | 0.153 | 84.9 | -0.165 | 99.1
DHRS7B (dehydrogenase/reductase 7B) | SID160737382 | -0.467 | 72.6 | -0.091 | 83.1
TAS2R42 (taste 2 receptor member 42) | SID160765159 | 1.05 | 103 | 1.32 | 81.2
TAS2R42 (taste 2 receptor member 42) | SID160765160 | -1.92 | 43.7 | -1.31 | 69
TAS2R42 (taste 2 receptor member 42) | SID160765161 | 1.49 | 112 | 0.8 | 101
PHF20 (PHD finger protein 20) | SID160740365 | -2.39 | 34.3 | -2.66 | 77.3
PHF20 (PHD finger protein 20) | SID160740366 | -0.521 | 71.5 | -0.114 | 82.4
PHF20 (PHD finger protein 20) | SID160740367 | 0.804 | 97.9 | 2.27 | 60.1
ATF6B (activating transcription factor 6 beta) | SID160730626 | -0.296 | 76 | -0.334 | 92.8
ATF6B (activating transcription factor 6 beta) | SID160748030 | -2.38 | 34.5 | -3.25 | 90.8
ATF6B (activating transcription factor 6 beta) | SID160748042 | -0.166 | 78.6 | 0.261 | 82
